Measured values published in patent US20050137121A1, “Inhibition of invasive remodelling” (priority 1996, published 2005).
At least one compound was matched to its structure with a doubt left.

Test system: MDA-MB-231 human breast cancer cells
Assay: MDA-MB-231 human breast cancer xenograft growth in athymic mice
Format: in vivo
Details: 650,000 KIU/kg aprotinin and 1 g/kg tranexamic acid in 5 i.p. injections per day; 125 mg/kg BB-94 i.p. daily

In the case of CNC(=O)[C@H](Cc1ccccc1)NC(=O)[C@H](CC(C)C)[C@H](CSc1cccs1)C(=O)NO [BB-94, Batimastat], the tumour growth is reported as “clearly inhibits growth”.
